Structures are written as SMILES. “And” between values parts separate entries of the source, which are not always exact repeats. Equal values may be shown once. The list shows a part of the results. Repeats in this data set agree poorly, so a single value says little.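 HEK293T cells were given each compound shortly before transfection with a reporter in which red mCherry is followed by the SARS-CoV-2 frameshift element and then GFP in the −1 frame, so GFP appears only after frameshifting.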

This assay relates to SARS-CoV-2 -1 PRF reporter mCherry-FSE-GFP(-1). Description: mCherry (red) intensity as percent of control; higher = higher upstream reporter expression. To be noted: 10 µM; 24 h; HEK293T.
As for `NC(=O)c1ncn([C@@H]2O[C@H](CO)[C@@H](O)[C@H]2O)c1O` [mizoribine], the mCherry stood at 106%.
To `COc1cc([C@@H]2c3cc4c(cc3[C@@H](O[C@@H]3O[C@@H]5CO[C@@H](c6cccs6)O[C@H]5[C@H](O)[C@H]3O)[C@H]3COC(=O)[C@H]23)OCO4)cc(OC)c1O` belongs 24.4%; to `CCC1=C[C@@H]2CN(C1)Cc1c([nH]c3ccccc13)[C@@](C(=O)OC)(c1cc3c(cc1OC)N(C)[C@H]1[C@@](O)(C(=O)OC)[C@H](OC(C)=O)[C@]4(CC)C=CCN5CC[C@]31[C@@H]54)C2` [Vinorelbine], 23.9%; to `O=C(/C=C/c1ccc2c(c1)OCO2)N1CCN(CC(=O)N2CCCC2)CC1` [cinoxopazide], 80.3%.
To `CN(C)CCN(Cc1ccccc1)c1nc2ccccc2o1` [oxadimedine] belongs 143%.
To `N[C@@H](Cc1ccc(O)cc1)C(=O)O` belongs 119%.
In turn, `Cc1ccccc1C(=O)Nc1ccc(C(=O)N2CCCC(N(C)C)c3ccccc32)cc1` (stereo not given) [mozavaptan] gave a mCherry of 27.9%.
To `Clc1cc(-c2ccccc2)ccc1OCCCN1CCOCC1` [chlordimorine] belongs 87.5%; to `CCC(=O)c1ccc2c(c1)N(CCCN1CCN(CCO)CC1)c1ccccc1S2` [carfenazine], 41.9%.
The figure for `NC(=O)NC1NC(=O)NC1=O` (stereo not given) is 104%.
The figure for `CCN(CC)C(=O)C1(c2ccccc2)CC1CN` (stereo not given) is 108%; for `CCNC(=O)[C@@H]1CCCN1C(=O)[C@H](CCCNC(=N)N)NC(=O)[C@H](CC(C)C)NC(=O)[C@@H](Cc1cn(Cc2ccccc2)cn1)NC(=O)[C@H](Cc1ccc(O)cc1)NC(=O)[C@H](CO)NC(=O)[C@H](Cc1c[nH]c2ccccc12)NC(=O)[C@H](Cc1cnc[nH]1)NC(=O)[C@@H]1CCC(=O)N1` [histrelin] it is 85.6%.
Turning to `CC1=C(C(=O)O)N2C(=O)[C@@H](NC(=O)[C@H](N)c3ccc(O)cc3)[C@H]2SC1` [cefadroxil], the mCherry was determined as 94.5%.
Turning to `C[C@]12CC[C@@H]3c4ccc(O)cc4C[C@@H](CCCCCCCCC[S+]([O-])CCCC(F)(F)C(F)(F)F)[C@H]3[C@@H]1CC[C@@H]2O` (stereo not given in full), the mCherry stood at 140%.
The figure for `CC(=O)O[C@H]1C(=O)[C@@]2(C)[C@H]([C@H](OC(=O)c3ccccc3)[C@]3(O)C[C@H](OC(=O)[C@H](O)[C@@H](NC(=O)c4ccccc4)c4ccccc4)C(C)=C1C3(C)C)[C@]1(OC(C)=O)CO[C@@H]1C[C@@H]2O` is 28.6%.
To `CCC(=O)O[C@]1(C(=O)COC(C)=O)CC[C@H]2[C@@H]3C[C@H](C)C4=CC(=O)C=C[C@]4(C)[C@H]3[C@@H](O)C[C@@]21C` [methylprednisolone aceponate] belongs 103%; to `O=C(O)CCC/C=C\CC1C(O)CC(O)C1/C=C/C(O)COc1cccc(Cl)c1` (stereo not given) [cloprostenol], 65.2%; to `N[C@@H](Cc1ccccc1)C(=O)O` [phenylalanine], 120%.
With `O=[N+]([O-])c1cncn1CCN1CCOCC1` [nimorazole], the mCherry came out at 121%.
To `CCCCCCCCCCCCCCC[C@H](O)[C@@H](N)CO` [safingol] belongs 107%; to `Cn1cnc([N+](=O)[O-])c1Sc1ncnc2nc[nH]c12`, 98.3%.
To `CC[C@]12CCCN3CCc4c(n(c5ccccc45)[C@@](O)(C(=O)OC)C1)[C@@H]32` belongs 132%; to `C[C@H]1c2cccc(O)c2C(O)=C2C(=O)[C@]3(O)C(O)=C(C(N)=O)C(=O)[C@@H](N(C)C)[C@@H]3[C@@H](O)[C@@H]21` [doxycycline], 72%; to `CC(C)(C)C(=O)OCOP(=O)(COCCn1cnc2c(N)ncnc21)OCOC(=O)C(C)(C)C` [Hepsera], 127%.
The molecule `CN(C)CC/C=C1/c2ccccc2COc2ccc(CC(=O)O)cc21` [Patanol] returned a mCherry of 107%.
Regarding `CC(=O)Oc1ccccc1C(=O)Nc1ncc([N+](=O)[O-])s1` [nitazoxanide], the mCherry came to 121%.
With `CCC(C)n1ncn(-c2ccc(N3CCN(c4ccc(OCC5COC(Cn6cncn6)(c6ccc(Cl)cc6Cl)O5)cc4)CC3)cc2)c1=O` (stereo not given) [Itraconazole], the mCherry is 71.1%.
The figure for `CN1CC[C@H](c2c(O)cc(O)c3c(=O)cc(-c4ccccc4Cl)oc23)[C@H](O)C1` [alvocidib] is 10.5%; for `O/N=C/c1cc[n+](CCC[n+]2ccc(/C=N/O)cc2)cc1` [trimedoxime bromide] it is 76.3%; for `NC(=O)C1=C(O)[C@@]2(O)C(=O)C3=C(O)c4c(O)cccc4C[C@H]3C[C@H]2CC1=O` [incyclinide] it is 38%.
To `Cc1ccccc1N1CCN(CCc2nnc3n2CCCC3)CC1` belongs 99.3%; to `C#C[C@]1(OC(C)=O)CC[C@H]2[C@@H]3CCC4=C[C@@H](OC(C)=O)CC[C@@H]4[C@H]3CC[C@@]21C` [Etynodiol], 111%.
The figure for `OC[C@H]1O[C@@H](n2cnc3c2N=CNC[C@H]3O)C[C@@H]1O` [pentostatin] is 96.4%; for `O=C(O)c1ccc(NC(=O)[C@H](Cc2ccc(O)cc2)NC(=O)c2ccccc2)cc1` [Chymex] it is 121%.
The molecule `O=C(NN1CCCCCC1)NS(=O)(=O)c1ccc(Cl)cc1` [glypinamide] displayed a mCherry of 97.8%.
`COc1cc(/C=C/C(=O)N2CCN(CC(=O)NC(C)C)CC2)cc(OC)c1OC` [cinpropazide] gave a mCherry of 101%.
To `CCN(CC)C(=O)c1ccc(O)c(OC)c1` [etamivan] belongs 138%; to `CC1(C)S[C@@H]2[C@H](NC(=O)[C@H](NC(=O)N3CCNC3=O)c3ccccc3)C(=O)N2[C@H]1C(=O)O` [Azlin], 107% and 100%.
To `COc1ccc(C(=C(c2ccccc2)[N+](=O)[O-])c2ccc(OCCN3CCCC3)cc2)cc1` [nitromifene] belongs 45.7%; to `CCOc1cc(CC(=O)N[C@@H](CC(C)C)c2ccccc2N2CCCCC2)ccc1C(=O)O` [repaglinide], 99.5%.

The values are drawn from the supplement of paper PMC8256030.
